Reference: patent publication US6974814B2, “Neuropharmacological treatment of sleep-related breathing disorders” (The Board of Trustees of the University of Illinois, priority 1999, dated 2005)

System: spontaneous apneas
Conditions: REM sleep; 4.0 mg/kg intraperitoneal; vs saline

Compound: Nc1nc2ccc(OC(F)(F)F)cc2s1 [riluzole]
- animals in which apnea expression decreased or remained the same: 5 of 7
